Measured data: PubChem BioAssay AID652243 (Drosophila RNAi Screening Center, 2013)
In all, the deposit lists about 24,000 reagents; below is an unselected part of those with a known target gene and a result. Over the whole deposit, 246 (1%) got an active call. 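Plates not normalised; calls are printed but the firefly/Renilla ratio behind them is not deposited; fold cut for lowering reported inconsistently.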 Raw values vary from plate to plate and are shown uncorrected. The numbers tell different reagents against one gene apart. Names joined by + are all predicted targets of the reagent. Not given: the amount of reagent.

Screen: 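Fly regulators of androgen-dependent reporter output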 (primary screen)
Cells: Drosophila S2R+ cells
Knock-down reagent: long dsRNA against Drosophila genes
Timing: 72 h (48 h, then 24 h hormone)
Conditions: synthetic androgen R1881 at 10 nM for 24 h
Measurement: 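Per-well raw luminescence of the androgen-driven firefly reporter and of the Renilla control, two replicates each, without normalisation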
Scale: firefly reporter light: higher = more light from androgen-responsive reporter; Renilla control light: higher = more constitutive control signal (cell number, transfection)
Rule for the call: 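Across duplicate plates, a knock-down whose log firefly/Renilla ratio shifted a set fold down or up from the GFP/LacZ control mean was a hit; the downward cut appears as both 1.5 and 3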
Calls: active = hit: reporter lowered or raised; inactive = no hit

no.	Gene	reagent no.	firefly reporter light, replicate 1	firefly reporter light, replicate 2	Renilla control light, replicate 1	Renilla control light, replicate 2	outcome
1	Septin2	1	59385	54757	4.71e5	6.06e5	inactive
2	CG43084	1	2.78e5	2.45e5	2.73e6	2.21e6	inactive
3	Mos	1	2.65e5	2.14e5	1.35e6	1.57e6	inactive
4	Mos	2					inactive
5	CG14229	1	21589	20349	1.66e5	1.40e5	inactive
6	CG14229	2	6.60e5	8.70e5	1.47e6	1.70e6	inactive
7	Peritrophin-15b	1	2.53e5	1.88e5	2.19e6	1.79e6	inactive
8	CG31759	1	1.06e5	1.95e5	3.25e5	5.24e5	inactive
9	UGP + PGRP-LF	1	1.92e5	2.29e5	2.11e6	2.13e6	inactive
10	CG33941	1	7.95e5	7.05e5	1.76e6	1.26e6	inactive
11	CG33941	2	9.50e5	9.66e5	1.80e6	2.15e6	inactive
12	CG33941	3	8.80e5	7.99e5	1.68e6	1.57e6	inactive
13	Phb1	1	1.10e6	7.96e5	1.91e6	1.26e6	inactive
14	Phb1	2	2.81e5	2.87e5	7.07e5	8.03e5	inactive
15	MFS15	1	59813	87846	1.18e6	1.16e6	inactive
16	MFS15	2	3.36e5	7.50e5	8.70e5	1.41e6	inactive
17	CG31917 + Tfb5	1	2.32e5	2.91e5	1.55e6	1.27e6	inactive
18	CG31917 + Tfb5	2	90018	61101	8.36e5	5.60e5	inactive
19	CG34136	1	3.57e5	3.16e5	1.04e6	7.12e5	inactive
20	CG7755	1	1.26e5	1.10e5	2.52e6	2.52e6	inactive
21	CG14668	1	49653	63761	1.33e6	1.40e6	inactive
22	Osi13	1	32302	47234	7.27e5	7.16e5	inactive
23	CG15034	1	3.39e5	4.40e5	2.25e6	3.03e6	inactive
24	sip3	1	49473	76719	5.18e5	4.20e5	inactive
25	sip3	2	3.69e5	4.39e5	6.86e5	6.86e5	inactive

3 entries already listed, ordered by “Renilla control light, replicate 2”, lowest first:
Gene	reagent no.	firefly reporter light, replicate 1	firefly reporter light, replicate 2	Renilla control light, replicate 1	Renilla control light, replicate 2	outcome
CG31917 + Tfb5	2	90018	61101	8.36e5	5.60e5	inactive
CG34136	1	3.57e5	3.16e5	1.04e6	7.12e5	inactive
CG31917 + Tfb5	1	2.32e5	2.91e5	1.55e6	1.27e6	inactive
